The list shows a part of the results.
The molecules below were run on T1, CTL2-GFP (C. trachomatis L2/434/Bu, GFP-expressing). Settings: bulk GFP, single well; 28.5 h, 10 µM; inhibitor.
T1 construct: L2/434/Bu, GFP-expressing
Design: species or system HeLa; Intracellular C. trachomatis growth in HeLa cells, bulk GFP fluorescence relative to DMSO

Row | SMILES | % of control remaining [%]
1 | CCn1cc(NC(=O)NC2CCN(c3ncccc3C#N)CC2)c(C)n1 [CBK307213] | 139.564
2 | Cc1noc(C)c1NC(=O)N(Cc1ccc(-c2ccccc2)cc1)CC1CCNCC1 [CBK056721] | 105.355
3 | O=C(c1n[nH]c2c1CCCC2)N1CC(=O)N(CCc2ccccc2)C(=O)C1 [CBK288110] | 149.503
4 | O=C(c1ccco1)N1CCN(C(=S)Nc2ccc(S(=O)(=O)Nc3ncccn3)cc2)CC1 [CBK267096] | 57.0718
5 | CCCn1ccnc1-c1cn(CCc2cc(O)nc(C)n2)nn1 [CBK306675] | 112.952
6 | O=C(c1ccccc1)N1C[C@@H]2CCCCN(Cc3cccnc3)[C@@H]2C1 [CBK285512] | 97.3854
7 | CN(C)CCN1CCN(c2ccc(-c3ccsc3)cn2)CC1 [CBK036915] | 189.268
8 | c1ccc2sc(CCCCc3nc4ccccc4s3)nc2c1 [CBK261248] | 100
9 | Oc1cc(Cl)c(-c2ccccc2)nn1 [CBK022028] | 100.812
10 | CC1(C(=O)O)NC(c2ccccc2O)C2C(=O)N(Cc3ccccc3)C(=O)C21 (centres unmarked) [CBK218007] | 112.884
11 | Cn1ccnc1C(O)C1CCN(C(=O)NCCc2cccc(F)c2)CC1 (centres unmarked) [CBK304657] | 145.081
12 | Cn1c(COc2ccccc2)nnc1SCC(=O)c1ccc(-c2ccccc2)cc1 [CBK267426] | 129.181
13 | Cc1nccn1CCC1CCN(C(=O)CC2CCCCO2)CC1 (centres unmarked) [CBK281974] | 116.779
14 | CCCn1cc(C(CC(=O)O)C(=O)O)c2ccccc21 (centres unmarked) [CBK267345] | 155.153
15 | COCCn1c(SC2CCN(C)C2=O)nc2ccccc21 (centres unmarked) [CBK305131] | 79.033
16 | NC(=O)COc1ccccc1O [CBK261029] | 97.2315
17 | Cc1ccc(NC(=O)N2CCC(C(=O)O)CC2)cc1 [CBK156077] | 114.53
18 | Cc1ccccc1NC(=O)Cn1c(=O)cnc2ccccc21 [CBK287852] | 133.643
19 | CC(=O)N1CC2(CCN(Cc3nccn3C(C)C)CC2)CC1C(=O)O (centres unmarked) [CBK306587] | 95.0392
20 | O=C(C1=C(O)C(=O)N(CCN2CCOCC2)C1c1cccnc1)c1ccco1 (centres unmarked) [CBK264570] | 111.359
21 | CCC#CC(=O)Nc1ccc(N2CCNCC2)nc1 [CBK004746T] | 110.748
22 | Cc1ccc(S(=O)(=O)N(Cc2c(F)cccc2F)C2CCNCC2)cc1 [CBK163927T] | 100
23 | c1cncc(-c2nnc([C@H]3CCNC3)o2)c1 [CBK289396] | 111.484
24 | O=C(NCCNc1ccc([N+](=O)[O-])cc1Cl)c1ccc(F)cc1 [CBK262344] | 100
25 | N=C(Nc1nc(CSc2nnc(N)s2)cc(=O)[nH]1)Nc1ccc(Cl)cc1Cl [CBK268890] | 127.124
26 | O=C(NCc1ccc(Cl)cc1)c1cnc2ccc(CN3CCSCC3)cc2c1O [CBK018010] | 105.488
27 | CN(C)CCN(C)C(=O)c1ccc(-c2cccc(N(C)C)c2)nc1N(C)C [CBK106077] | 132.757

Row | SMILES | % of control remaining [%]
28 | O=C(CSc1nnc2sc3ccccc3n12)N1N=CCC1c1ccccc1 (centres unmarked) [CBK266527] | 158.858
29 | CCNC(=O)C1(Cc2ccccc2-c2ccncc2)CCOCC1 [CBK285216] | 129.819
30 | COc1ccc(OC)c(C(O)c2nc3ccccc3n2C(C)C)c1 (centres unmarked) [CBK263474] | 120.255
31 | Nc1cccc(-c2nc(-c3cccs3)cnc2N)c1 [CBK063923] | 135.698
32 | CN(C)CCCNC(=O)c1ccc(/C=N/O)nc1 [CBK288489] | 80.8763
33 | CCn1ncnc1CN1CCN(C2Cc3ccccc3C2)CC1 [CBK304401] | 160.544
34 | COc1cc(CNc2nccnc2-c2ccc(C(=O)N3CCOCC3)cc2)cc(OC)c1 [CBK036866] | 151.312
35 | C[C@H](c1ccccc1)n1c(=O)[nH]c2ncc(-c3cccc4cccnc34)nc21 [CBK064237] | 182.833
36 | CCC(CNC(=O)c1cccc(C)n1)N1CCCC1 (centres unmarked) [CBK304803] | 92.2466
37 | Cc1cccc(C(=O)NNC(=O)c2cccc(Cl)c2)c1 [CBK261676] | 98.735
38 | COc1ccc(CCNC(=O)C(N)=O)cc1OC [CBK288457] | 141.191
39 | CCCc1cc(=O)oc2cc(OCc3ccc(C(=O)O)o3)ccc12 [CBK264786] | 119.04
40 | O=C1CCC(=O)N1CCOc1nccnc1OC1CCN(CC2CCCCC2)CC1 [CBK084357] | 86.2221
41 | N=c1n(CCN2CCOCC2)c2ccccc2n1CC(O)c1cccs1 (centres unmarked) [CBK262895C] | 113.532
42 | O=C(N/N=C/c1ccccc1Cl)c1ccc(C(=O)N/N=C/c2ccccc2Cl)cc1 [CBK261698] | 109.341
43 | CN1CCN(c2ccccc2NC(=O)c2ccc3ccccc3c2)CC1 [CBK268486] | 90.4708
44 | COc1ccc(C(C)C)cc1-c1nc2ncccc2cc1N [CBK067614] | 86.7346
45 | COc1ccc(-c2nccnc2NCC2CC2)cc1 [CBK038048] | 208.041
46 | Cc1cccc(NCC2CCN(Cc3cc(=O)n4ccccc4n3)C2)n1 (centres unmarked) [CBK305756] | 110.381
47 | CCCCN(C)S(=O)(=O)c1ccc(C(C)(C)CC)cc1 [CBK044836] | 103.887
48 | Cc1nc(-c2cccnc2)[nH]c(=O)c1CC(=O)N(C)C1CCCCC1 [CBK306310] | 94.3792
49 | Cc1ccc(-c2nnc(SCc3cccc4nsnc34)n2C)cc1 [CBK269706] | 110.354
50 | O=c1[nH]c(Nc2ccccc2)nc2nccc(-c3ccccc3)c12 [CBK288072] | 117.511
51 | COc1ccc(CCN2CCN(c3nccnc3OCC3COc4ccccc4O3)CC2)cc1OC (centres unmarked) [CBK082808T] | 99.4573
52 | COc1cncc(-c2cncc(NCCCN3CCOCC3)n2)c1 [CBK037902] | 118.527
53 | CC(C)NC(=O)[C@@H](C)C1CC[C@@]2(C)CC[C@H](NC(=O)c3ccncc3)[C@@H](C)[C@@H]2[C@H]1O (some centres unmarked) [CBK289449] | 135.256

Three of the compounds above, as a markdown table.

| Row | SMILES | % of control remaining [%] |
| --- | --- | --- |
| 36 | CCC(CNC(=O)c1cccc(C)n1)N1CCCC1 (centres unmarked) [CBK304803] | 92.2466 |
| 42 | O=C(N/N=C/c1ccccc1Cl)c1ccc(C(=O)N/N=C/c2ccccc2Cl)cc1 [CBK261698] | 109.341 |
| 48 | Cc1nc(-c2cccnc2)[nH]c(=O)c1CC(=O)N(C)C1CCCCC1 [CBK306310] | 94.3792 |

Source: publication PMC12040169 (PLOS Biology, 2025)
